This assay has as its target biotinylated mIL-21R (mouse) (UniProt Q9JHX3). The experiment in a line: BLI; mIL-21 and 21h10 incubated in PBS or murine serum for 1-240 minutes at 37°C, then binding to mIL-21R; both purified.

Protein sequences, listed by entry. Tags and fused reporters are not part of them.
UniProt Q9JHX3: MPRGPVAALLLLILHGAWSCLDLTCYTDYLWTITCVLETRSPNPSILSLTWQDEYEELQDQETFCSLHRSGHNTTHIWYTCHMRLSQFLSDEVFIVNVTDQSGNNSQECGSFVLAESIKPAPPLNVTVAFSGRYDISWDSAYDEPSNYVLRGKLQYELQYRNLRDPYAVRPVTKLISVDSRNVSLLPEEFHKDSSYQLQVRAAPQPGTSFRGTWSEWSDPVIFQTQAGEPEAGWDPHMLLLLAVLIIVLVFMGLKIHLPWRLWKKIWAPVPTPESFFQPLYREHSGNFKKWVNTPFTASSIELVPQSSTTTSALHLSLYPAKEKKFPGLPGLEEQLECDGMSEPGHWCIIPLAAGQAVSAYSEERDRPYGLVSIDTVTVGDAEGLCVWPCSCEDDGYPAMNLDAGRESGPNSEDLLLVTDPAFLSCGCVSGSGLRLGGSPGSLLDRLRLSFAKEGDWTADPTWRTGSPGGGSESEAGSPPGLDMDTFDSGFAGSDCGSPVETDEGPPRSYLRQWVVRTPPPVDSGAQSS

Results are given in words; binding and its absence hold for the method and conditions named. Some entries that bind do so weakly or less than the wild type.

B1: 21h10 (designed binder)
chain: DEEELKEIMKEAAECARKELEKLDNTDEDTRWLKITLKKIVRMANRIVRMREREADSKRFEIRMRGLIDIADHVKREFASEDLKEVMERAKSAAQKALGRWL
As for B1, the binding result is given as “binds”.
